Measured data: PubChem BioAssay AID1259254 (NCATS, 2017)
Aim: 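Gene knock-downs that lead to re-replication, shown by excess G2 DNA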 (primary screen). Cell system: human HCT116 colorectal cancer cells. Reagents: single siRNA against human genes. Time to read-out: 3 days. Detection: 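Nuclei stained with Hoechst and imaged; cell-cycle phase assigned by DNA content; G2 share scaled per plate, non-targeting siRNA 0%, GMNN siRNA 100%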. Direction: G2 robust z-score: higher = more G2 cells, more excess DNA replication. Call rule: 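Active siRNAs have a G2 robust z of 5 or more median absolute deviations over the median, which in these data means about 38% or higher of GMNN control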.
Shown is one part, drawn at random, of about 59,000 reagents. Of all reagents, about 1,550 (2.6%) are marked active. 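G2 share is only a proxy for re-replication; each gene was hit by three separate siRNAs, and active genes were retested.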 Reagents against one gene are numbered here. Further read-outs or replicates are left out here. No sequences are given here. Not stated in the record: the amount of reagent.

The opening 2 records as a preview:
ZNF114 (GeneID 163071) #1 | G2 robust z-score: 0.295; activity call: inactive
ZNF114 (GeneID 163071) #2 | G2 robust z-score: -0.84; activity call: inactive

Results, repeating the preview:
ZNF114 (GeneID 163071) #1 | G2 robust z-score: 0.295; activity call: inactive
ZNF114 (GeneID 163071) #2 | G2 robust z-score: -0.84; activity call: inactive
ZNF114 (GeneID 163071) #3 | G2 robust z-score: -0.875; activity call: inactive
RNF20 (GeneID 56254) #1 | G2 robust z-score: -0.644; activity call: inactive
RNF20 (GeneID 56254) #2 | G2 robust z-score: 1.53; activity call: inactive
RNF20 (GeneID 56254) #3 | G2 robust z-score: 1.17; activity call: inactive
SPINK8 (GeneID 646424) #1 | G2 robust z-score: -0.288; activity call: inactive
SPINK8 (GeneID 646424) #2 | G2 robust z-score: -0.0429; activity call: inactive
SPINK8 (GeneID 646424) #3 | G2 robust z-score: 0.295; activity call: inactive
TAF7 (GeneID 6879) #1 | G2 robust z-score: 2.39; activity call: inactive
TAF7 (GeneID 6879) #2 | G2 robust z-score: 0.173; activity call: inactive
TAF7 (GeneID 6879) #3 | G2 robust z-score: -0.0384; activity call: inactive
